Source: the supplement of paper PMC3334620
Over roughly 33,000 sequences, “E-score (-0.5 to 0.5)” has its median near -0.0059; the highest 2% begin near 0.26. The list shows a part of the results.

biological target: T1, Cin5 (UniProt P40917); experiment: PBM E-score (8-mer binding enrichment) (E-score (-0.5 to 0.5)); higher = stronger / more preferred TF binding; conditions: protein concentration: 100 nM; construct: GST-full length
T1 sequence: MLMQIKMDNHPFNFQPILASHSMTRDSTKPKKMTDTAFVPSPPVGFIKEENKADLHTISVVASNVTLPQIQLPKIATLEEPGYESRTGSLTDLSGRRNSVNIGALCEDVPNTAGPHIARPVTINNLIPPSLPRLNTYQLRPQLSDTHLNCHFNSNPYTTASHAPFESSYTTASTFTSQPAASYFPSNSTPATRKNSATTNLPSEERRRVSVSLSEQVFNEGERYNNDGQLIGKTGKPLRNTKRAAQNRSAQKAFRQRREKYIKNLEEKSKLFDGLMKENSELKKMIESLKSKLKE
In short: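 Universal all-10-mer Agilent arrays, fresh or stripped once, were converted to double-stranded form by primer extension. GST-tagged yeast transcription factors from PURExpress in vitro transcription/translation, full-length or DNA-binding domain only, were applied at about 100-200 nM and detected with fluorescent anti-GST. After masliner normalisation, the Universal PBM Analysis Suite scored each ungapped eight-base word together with its reverse complement by E-score.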

Sequence | PBM E-score
CTGAGTCA | 0.077
AACCAAGT | 0.173
ATGAGAGA | 0.135
ATGTGACC | -0.0859
CCATATGG | 0.12
AAGCAGGA | 0.0254
GGCCTTAA | -0.0219
TCTGCCAA | -0.216
GGTCCCAA | -0.119
CGACTGGA | -0.167
CCCCCAGC | -0.399
CATACCGA | -0.0899
AGACCTGC | -0.218
AGTCTGCC | -0.287
AACCGAAA | 0.121
AAGACTTA | -0.205
AATCATCT | -0.00464
CCTGGTCA | -0.141
CACGCATG | -0.206
AGATCGTG | 0.0401
AAGGCCCA | -0.143
TTCTGCAA | 0.049
ATACGCAT | 0.184
ATATGCTC | 0.101
CACGGCGG | -0.114

Sequence | PBM E-score
CTATACGA | -0.0708
ACCTATCA | -0.0231
ACCTAGTA | -0.146
AAGATAAG | 0.0623
ATCACTGC | 0.0947
CGCCTCCA | -0.0747
CCTCCCGA | -0.3
CTACCCGC | -0.0292
GAACGATC | -0.0283
TCACTGGA | -0.104
GTCTGTAA | 0.0157
GGATGGAC | -0.0178
CATTCTGA | 0.0376
ACAGTTCA | 0.128
CACCCTAA | 0.0583
GCGCTCAA | -0.158
ATGGTAAG | 0.0174
GAAATTCC | 0.0113
ACCTACAA | 0.128
CTCGACTC | -0.0107
GCGGACGC | -0.205
CCCATTGC | 0.0275
ACAGGTAC | -0.158
TATCAGGA | 0.0257
AACGCGCC | -0.0466

Sequence | PBM E-score
AAATAGTT | 0.133
CAAACATC | -0.0882
CTATCTAA | 0.0212
GCAGGCAA | 0.00071
AGTCCAGG | -0.177
AACAAGAT | 0.146
CAACCGCG | 0.269
CGATGCAC | -0.0125
AAATCAAT | 0.205
CGGCCCCG | -0.29
AGGGTTAC | -0.116
CTGAAAAA | -0.199
AGAACGGG | -0.0709
ACAACGTA | -0.0126
ACACCGCC | -0.0408
CCTTATTC | -0.0989
CGGTTCCA | -0.133
GCTGTCAC | -0.126
AGGGTTTC | -0.16
GATCACAC | 0.00476
CACTCTAG | -0.137
CCCGGAGG | -0.377
ACCCCGTC | -0.171
ACTTAGGC | -0.265
CTGCCAAC | -0.179

Sequence | PBM E-score
GGCCCAAC | -0.0745
ACCACATG | 0.143
CCGGAACA | 0.145
GCTCTGAC | -0.226
TAAATGAA | 0.129
ACGGCCAG | -0.027
AAAGTCAA | 0.0463
AGTTAAAC | 0.115
AACCATGC | 0.0918
GTATGGGA | -0.207
GGATCTCA | -0.0792
CGTGATAC | 0.0414
AATGCGGC | -0.00913
CCTCCCTC | -0.0631
GCAACTCC | -0.101
ATCAGATG | -0.116
GAACCCAA | -0.0818
ATTTGACG | 0.049
GGTTACAC | -0.124
GAAATTGC | 0.0508
CCCGAGAC | -0.112
AAACCACG | -0.00291
ACCTGCAC | -0.0537
GGGGGAAC | -0.38
CATATCGC | 0.0489

Sequence | PBM E-score
CGGTGGTA | -0.0177
GTAGGTCA | -0.136
GACATCCA | -0.0638
GAGTTGGA | 0.0467
GAGGCAGC | -0.103
GCCAATCA | -0.117
AGGACTGA | -0.00068
AGTCATTA | -0.0964
CGCTAAGC | 0.00361
ACAGAGAC | 0.0455
ACACTCGC | 0.185
ACACGCTA | -0.134
GCGACTTA | -0.138
AGTCATGA | 0.131
CTCCGTAC | 0.0128
CGATAAAG | -0.0177
AGCCAGAG | -0.148
CAATGTAG | -0.0775
GACGTAGA | -0.189
AGGTCACC | -0.246
ACCCAGCT | -0.00117
AGATCATG | 0.057
ACGCCGGG | -0.16
AAGTGCAC | 0.185
CCTGTCTC | -0.214

Sequence | PBM E-score
AATAATAC | 0.181
TACAGGCA | -0.0233
GTGTACAC | -0.0165
CGTGTTAC | 0.0926
AGGGCATA | -0.0258
GTGAGTAA | 0.0772
GTATAATA | 0.253
ATTGATTA | 0.317
ATTAAATC | 0.205
ACGTCGCC | -0.123
GTCCTAAA | -0.0994
ACCGGGGG | -0.337
ACCCTTTG | -0.164
CCACCAGG | -0.278
AGTAGGGC | -0.0574
CGTTTTAC | -0.058
AACGGGAT | 0.0784
CTACGCCC | -0.0718
CTATAAAC | -0.00307
TAGTTCGA | 0.0579
CAGTACGA | 0.103
CTAGATTA | 0.223
ACCGAAAC | 0.0166
TCCAACGA | -0.151
CTTAGGGC | -0.208

Sequence | PBM E-score
ATTGTGCC | -0.0501
CAAAGTCG | -0.0483
AGTGGTAG | -0.0919
GCGCGAAC | -0.0137
ATGGTAGG | -0.0925
ATGAGTTA | 0.0342
TTCCAAAA | -0.149
CGCGGGTA | 0.152
AACGACTG | 0.0392
ATACTAGA | 0.142
CACCTACG | -0.00197
AGCTGCAT | -0.0932
AGTAGGAT | -0.0168
AAATTTCC | 0.0375
ACAAATGT | 0.0871
GAGGAAGA | -0.0861
CAGCAAGG | -0.168
GTTCCATA | 0.0652
CAGAATTA | 0.0194
CAGTGGCA | -0.108
AGGGATGA | 0.01
CGAAGTAA | 0.151

39 entries from above, tab-delimited:
Sequence	PBM E-score
GTGAGTAA	0.0772
GTATAATA	0.253
ATTGATTA	0.317
ATTAAATC	0.205
ACGTCGCC	-0.123
ACCGGGGG	-0.337
ACCCTTTG	-0.164
CCACCAGG	-0.278
AGTAGGGC	-0.0574
CGTTTTAC	-0.058
AACGGGAT	0.0784
CTACGCCC	-0.0718
CTATAAAC	-0.00307
TAGTTCGA	0.0579
CAGTACGA	0.103
CTAGATTA	0.223
TCCAACGA	-0.151
CTTAGGGC	-0.208
ATTGTGCC	-0.0501
CAAAGTCG	-0.0483
AGTGGTAG	-0.0919
GCGCGAAC	-0.0137
ATGAGTTA	0.0342
TTCCAAAA	-0.149
CGCGGGTA	0.152
AACGACTG	0.0392
ATACTAGA	0.142
CACCTACG	-0.00197
AGCTGCAT	-0.0932
AGTAGGAT	-0.0168
AAATTTCC	0.0375
ACAAATGT	0.0871
GAGGAAGA	-0.0861
CAGCAAGG	-0.168
GTTCCATA	0.0652
CAGAATTA	0.0194
CAGTGGCA	-0.108
AGGGATGA	0.01
CGAAGTAA	0.151

Pulled one by one from the entries so far (3):
Sequence | PBM E-score
ATTAAATC | 0.205
AAATTTCC | 0.0375
CCCGAGAC | -0.112
